According to patent publication US7888291B2, “Substrates and assays for β-secretase” (Elan Pharmaceuticals, Inc., priority 2000, dated 2011):
Not every detail of the peptide structures is certain; ends, links or a residue may be inferred. Residues, ends and D or L forms follow the SMILES beside them. *: point of attachment. Dnp = O=[N+]([O-])c1ccc(*)c([N+](=O)[O-])c1; Mca = COc1ccc2c(CC(=O)*)cc(=O)oc2c1

The chains behind the UniProt entries cited, without tags or fusion partners. Residues count along the entry.
UniProt P56817, 46-501: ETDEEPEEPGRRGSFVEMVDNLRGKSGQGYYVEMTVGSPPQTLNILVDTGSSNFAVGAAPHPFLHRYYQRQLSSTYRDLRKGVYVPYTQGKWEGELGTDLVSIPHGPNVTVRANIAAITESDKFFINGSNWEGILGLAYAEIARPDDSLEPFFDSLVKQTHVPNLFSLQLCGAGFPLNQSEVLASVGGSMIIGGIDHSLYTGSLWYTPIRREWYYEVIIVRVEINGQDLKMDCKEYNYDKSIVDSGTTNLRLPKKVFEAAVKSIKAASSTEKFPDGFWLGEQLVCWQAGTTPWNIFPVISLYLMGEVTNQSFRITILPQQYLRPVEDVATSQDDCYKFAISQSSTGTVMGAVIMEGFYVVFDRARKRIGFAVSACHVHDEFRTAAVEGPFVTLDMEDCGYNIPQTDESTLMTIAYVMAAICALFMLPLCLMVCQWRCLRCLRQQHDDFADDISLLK

Target: Hu-Asp (Homo sapiens, UniProt P56817)
Experiment: Hu-Asp cleavage assay variation for substrates of SEQ ID NO:190 and 191 (Vmax, Km, pH, ionic strength, DMSO)
Type: biochemical
Parameters: made in house; host or cells: High Five insect cells
Conditions: 100 mM NaOAc/HOAc, pH 4.5 (stated for SEQ ID NO:190 and 191)
Description: In the substrates SEISY-EVEFRWKK (SEQ ID NO:190) and GLTNIKTEEISEISY-EVEFRWKK (SEQ ID NO:191), the 10 N-terminal amino acids of peptide SEISY-EVEFRWKK (SEQ ID NO:190) are identical to those of peptide SEISY-EVEFR (SEQ ID NO:152). The difference between the two peptide is the presence of a tryptophan and two lysines in the peptide of SEQ ID NO:190. […] Hu-Asp activity was tested towards SEISY-EVEFRWKK (SEQ ID NO:190) and GLTNIKTEEISEISY-EVEFRWKK (SEQ ID NO:191). […] The activity difference between the two peptides was particularly dramatic in the pH range 4.0-4.6. Specifically, it was 6.3-4.8 times higher for the peptide of SEQ ID NO:191. […] Both peptides were inhibited by increasing concentrations of DMSO. […] As expected, the N-terminus elongation increases activity. […] The development of the substrates of SEQ ID NO:190 and SEQ ID NO:191 is of great value in Hu-Asp inhibition studies and in studies concerning recombinant Hu-Asp refolding from E. coli inclusion bodies.
In a variation of the above assay for substrates of SEQ ID NO:190 or its N-terminally extended version depicted in SEQ ID NO:191), the substrates are incubated with the enzyme to a final reaction solution volume of 200 μl (although reaction mixtures of 50-100 μl also were used) composed of 5-50 μM peptide substrate, 1-10 nM enzyme, 0.1. M sodium acetate buffer at pH 4 to 5. […]

## COc1ccc2c(CC(=O)N[C@@H](CO)C(=O)N[C@@H](CCC(=O)O)C(=O)N[C@H](C(=O)N[C@@H](CC(N)=O)C(=O)N[C@@H](CC(C)C)C(=O)N[C@@H](CC(=O)O)C(=O)N[C@@H](C)C(=O)N[C@@H](CCC(=O)O)C(=O)N[C@@H](Cc3ccccc3)C(=O)N[C@@H](CCCNC(=N)N)C(=O)N[C@@H](CCCCNc3ccc([N+](=O)[O-])cc3[N+](=O)[O-])C(=O)N[C@@H](CCCNC(=N)N)C(=O)N[C@@H](CCCNC(=N)N)C(N)=O)C(C)C)cc(=O)oc2c1 [(MCA)Ac-SEVNL-DAEFRK(Dnp)RR-NH2, reference compound] (Mca-SEVNLDAEFRK(Dnp)RR-NH2; N-terminus and C-terminus assumed)
  Vmax: 18 nmol/mg/min
